According to paper PMC7957176:

Biological target: Myc-TRAF domain of USP7 (human)
Test: co-IP; cell lysates in RIPA buffer incubated with primary antibody pre-absorbed protein G sepharose beads at 4°C overnight, washed with RIPA buffer, Western blot

binding: binds
B1: Flag-ARMC5 (protein, UniProt Q96C12 1-935)
chain: MAAAKPTLTDSLSFCLAQLAAAAGEALGGEKDPATNETPLSRALLALRTRHIKAAGGIERFRARGGLRPLLALLRRAAAAGSAPSQAGPGSAPSSAASGASSPAPASGPAPSAVSSSSPTPPVRLRKTLDLALSILADCCTEGACRTEVRRLGGILPLVTILQCMKTDSIQNRTARALGNLAMEPESCGDIHCAGAVPLLVESLTACQDSQCLQSVVRALRNLADSPQHRLALAQQGAVRPLAELLATAPDAALTLALVRALLELSRGCSRACAEQLSLGGGLGPLVSLASHPKRAVREGTILILANLCAQGLIRPALGNAGGVEVLVDELRQRRDPNGASPTSQQPLVRAVCLLCREAINRARLRDAGGLDLLMGLLRDPRASAWHPRIVAALVGFLYDTGALGRLQALGLVPLLAGQLCGEAGEEEEEGREAASWDFPEERTPERAQGGSFRSLRSWLISEGYATGPDDISPDWSPEQCPPEPMEPASPAPTPTSLRAPRTQRTPGRSPAAAIEEPWGREGPALLLLSRFSQAPDPSGALVTGPALYGLLTYVTGAPGPPSPRALRILSRLTCNPACLEAFVRSYGAALLRAWLVLGVAPDDWPAPRARPTLHSRHRELGERLLQNLTVQAESPFGVGALTHLLLSGSPEDRVACALTLPFICRKPSLWRRLLLEQGGLRLLLAALTRPAPHPLFLFFAADSLSCLQDLVSPTVSPAVPQAVPMDLDSPSPCLYEPLLGPAPVPAPDLHFLLDSGLQLPAQRAASATASPFFRALLSGSFAEAQMDLVPLRGLSPGAAWPVLHHLHGCRGCGAALGPVPPPGQPLLGSEAEEALEAAGRFLLPGLEEELEEAVGRIHLGPQGGPESVGEVFRLGRPRLAAHCARWTLGSEQCPRKRGLALVGLVEAAGEEAGPLTEALLAVVMGIELGARVPA

No constants are given. Whether binding was seen depends on the method and setting. In cells and extracts the contact can be indirect. Binding can be weak; no strength is given. Tags and fused reporters may be left off the sequences shown.
